What all share (assay): cell viability relative to vehicle (DMSO) control (fraction); higher = more viable cells (less growth inhibition)
Conditions in all cases: treatment time 48 h

Experiment [1] relates to MDA-MB-231 GLI1.
In experiment [2] the test system is MDA-MB-231 Vector.
In experiment [3] the test system is MDA-MB-231 tGLI1.
For experiment [4], the system named is MDA-MB-231BRM GLI1.
The test system of experiment [5] is MDA-MB-231BRM Vector.
For experiment [6], the system named is MDA-MB-231BRM tGLI1.

“And” between values parts separate entries of the source, which are not always exact repeats. Identical values can stand only once. ± gives the standard deviation of the averaged measurements. The list shows a part of the results. Repeats in this data set agree poorly, so a single value says little.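 Triple-negative MDA-MB-231 breast cancer cells and their brain-metastatic MDA-MB-231BRM derivative each stably expressed empty vector, full-length GLI1 or truncated tGLI1. CellTiter-Blue measured viability at 48 h relative to 1% DMSO vehicle. Compounds reducing viability 20% more in tGLI1 cells than in vector and GLI1 cells counted as tGLI1-selective.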

For the molecule `CNCc1ccc(-c2cc(-c3nc(-c4ccc(S(=O)(=O)C(C)C)cc4)cnc3N)on2)cc1`, the cell viability in experiment [1] (0.05 µM) was determined as 0.866; in experiment [1] (0.5 µM), 0.283; in experiment [1] (5 µM) it was 0.161; in experiment [2] (0.05 µM) it was 1.17; in experiment [2] (0.5 µM), 0.338; in experiment [2] (5 µM), 0.238. Further, the cell viability amounted to 1.34 in experiment [3] (0.05 µM); 0.324 in experiment [3] (0.5 µM); 0.155 in experiment [3] (5 µM); 1.02 in experiment [4] (0.05 µM); 1.02 in experiment [4] (0.5 µM); 0.96 in experiment [4] (5 µM). Also, the cell viability in experiment [5] (0.05 µM) is 1.11; in experiment [5] (0.5 µM) it was 1.17; in experiment [5] (5 µM) it was 1.12; in experiment [6] (0.05 µM), 1.08; in experiment [6] (0.5 µM) it was 1.02; in experiment [6] (5 µM), 0.922.
With `CS(=O)(=O)CCNCc1ccc(-c2ccc3ncnc(Nc4ccc(OCc5cccc(F)c5)c(Cl)c4)c3c2)o1` [Lapatinib], the cell viability in experiment [1] (0.05 µM) turned out to be 1.19 ± 0.35; in experiment [1] (0.5 µM), 0.825 ± 0.34; in experiment [1] (5 µM), 1.2 ± 0.37; in experiment [2] (0.05 µM), 1.45 ± 0.55; in experiment [2] (0.5 µM) it was 1.19 ± 0.16; in experiment [2] (5 µM), 0.915 ± 0.11. In addition, the cell viability in experiment [3] (0.05 µM) was determined as 1.14 ± 0.23; in experiment [3] (0.5 µM), 1.16 ± 0.38; in experiment [3] (5 µM) it was 1.05 ± 0.3; in experiment [4] (0.05 µM), 1.03 ± 0.13; in experiment [4] (0.5 µM), 0.959 ± 0.12; in experiment [4] (5 µM), 0.853 ± 0.14. The cell viability in experiment [5] (0.05 µM) was 1.04 ± 0.16; in experiment [5] (0.5 µM) it was 0.893 ± 0.11; in experiment [5] (5 µM), 0.778 ± 0.074; in experiment [6] (0.05 µM), 0.975 ± 0.077; in experiment [6] (0.5 µM), 1.01 ± 0.15; in experiment [6] (5 µM), 0.79 ± 0.13.
On to `COc1cc2nccc(Oc3ccc(NC(=O)C4(C(=O)Nc5ccc(F)cc5)CC4)cc3)c2cc1OC`, for which the cell viability in experiment [1] (0.05 µM) came out at 1.49; in experiment [1] (0.5 µM), 1.78; in experiment [1] (5 µM) it was 0.592; in experiment [2] (0.05 µM) it was 1.55; in experiment [2] (0.5 µM) it was 1.36; in experiment [2] (5 µM), 0.448. The cell viability in experiment [3] (0.05 µM) came to 1.23; in experiment [3] (0.5 µM), 1.44; in experiment [3] (5 µM), 0.44; in experiment [4] (0.05 µM), 1.03; in experiment [4] (0.5 µM), 0.953; in experiment [4] (5 µM), 0.938. Besides, the cell viability in experiment [5] (0.05 µM) is 0.953; in experiment [5] (0.5 µM) it was 0.897; in experiment [5] (5 µM), 0.94; in experiment [6] (0.05 µM), 0.926; in experiment [6] (0.5 µM), 0.98; in experiment [6] (5 µM), 0.935.
For the molecule `CCCNC(=O)Nc1ccc(Oc2ncnc3cc(OC)c(OC)cc23)cc1Cl`, the cell viability in experiment [1] (0.05 µM) was found to be 1.42; in experiment [1] (0.5 µM), 1.45; in experiment [1] (5 µM) it was 1.49; in experiment [2] (0.05 µM), 1.91; in experiment [2] (0.5 µM) it was 1.35; in experiment [2] (5 µM), 1.23. The cell viability stood at 1.32 in experiment [3] (0.05 µM); 1.36 in experiment [3] (0.5 µM); 1.2 in experiment [3] (5 µM); 1.16 in experiment [4] (0.05 µM); 1.05 in experiment [4] (0.5 µM); 0.927 in experiment [4] (5 µM). The cell viability in experiment [5] (0.05 µM) was 1.16; in experiment [5] (0.5 µM), 1.02; in experiment [5] (5 µM), 1.1; in experiment [6] (0.05 µM), 0.577; in experiment [6] (0.5 µM), 1.05; in experiment [6] (5 µM), 1.02.
Take `O=C(c1ccc(/C=C/c2n[nH]c3ccccc23)cc1)N1CCNCC1`: the cell viability in experiment [1] (0.05 µM) came to 1.43; in experiment [1] (0.5 µM), 1.09; in experiment [1] (5 µM), 1.06; in experiment [2] (0.05 µM) it was 1.98; in experiment [2] (0.5 µM), 1.02; in experiment [2] (5 µM) it was 0.776. The cell viability in experiment [3] (0.05 µM) came out at 1.36; in experiment [3] (0.5 µM) it was 1.11; in experiment [3] (5 µM) it was 0.874; in experiment [4] (0.05 µM) it was 1.12; in experiment [4] (0.5 µM) it was 1.02; in experiment [4] (5 µM) it was 0.784. The cell viability is 1.19 in experiment [5] (0.05 µM); 0.941 in experiment [5] (0.5 µM); 0.856 in experiment [5] (5 µM); 0.505 in experiment [6] (0.05 µM); 0.932 in experiment [6] (0.5 µM); 0.831 in experiment [6] (5 µM).
With `CN(Cc1cnc2nc(N)nc(N)c2n1)c1ccc(C(=O)N[C@@H](CCC(=O)O)C(=O)O)cc1` [Abitrexate (Methotrexate)], the cell viability in experiment [1] (0.05 µM) is 1.19; in experiment [1] (0.5 µM), 1.02; in experiment [1] (5 µM), 0.701; in experiment [2] (0.05 µM) it was 1.3; in experiment [2] (0.5 µM), 1.19; in experiment [2] (5 µM) it was 0.962. Besides, the cell viability amounted to 1.11 in experiment [3] (0.05 µM); 1.03 in experiment [3] (0.5 µM); 0.801 in experiment [3] (5 µM); 1.01 in experiment [4] (0.05 µM); 0.984 in experiment [4] (0.5 µM); 1.03 in experiment [4] (5 µM). Also, the cell viability in experiment [5] (0.05 µM) was determined as 0.984; in experiment [5] (0.5 µM) it was 0.981; in experiment [5] (5 µM) it was 1.02; in experiment [6] (0.05 µM) it was 1.06; in experiment [6] (0.5 µM), 1.01; in experiment [6] (5 µM) it was 1.03.
With `C[C@@H]1CCN(C(=O)CC#N)C[C@@H]1N(C)c1ncnc2[nH]ccc12`, the cell viability was 1.13 and 1.06 in experiment [1] (0.05 µM); 1.3 and 1.38 in experiment [1] (0.5 µM); 1.12 and 1 in experiment [1] (5 µM); 0.931 and 1.12 in experiment [2] (0.05 µM); 1.11 and 1.2 in experiment [2] (0.5 µM); 0.877 and 1.22 in experiment [2] (5 µM). Moreover, the cell viability is 1.17 and 1.13 in experiment [3] (0.05 µM); 1.04 and 1.26 in experiment [3] (0.5 µM); 0.898 and 0.977 in experiment [3] (5 µM); 1.04 and 0.96 in experiment [4] (0.05 µM); 1.04 and 1.06 in experiment [4] (0.5 µM); 0.988 and 1.02 in experiment [4] (5 µM). Besides, the cell viability was 1.02 and 0.986 in experiment [5] (0.05 µM); 1.05 in experiment [5] (0.5 µM); 0.966 and 1.04 in experiment [5] (5 µM); 1.03 and 1.01 in experiment [6] (0.05 µM); 1.05 and 0.976 in experiment [6] (0.5 µM); 0.948 and 1.04 in experiment [6] (5 µM).

For the origin of these results see the supplement of paper PMC9454738.
